Results are given in words; binding and its absence hold for the method and conditions named. In cells and extracts the contact can be indirect. Binding calls can cover weak binding; strength is not graded here. Sequences can lack the tags named with a protein. Blank lines part the entries; values can stand above or below the molecule they belong to.
What was measured:
[1] = molecular target: T1, Flag-tagged ARG1^WT (pCDH-Flag) (human) (UniProt P05089); assay: co-IP; HEK 293T cells co-transfected with Flag-tagged ARG1 and HA-tagged SLC3A2 constructs (whole or truncated)
T1 sequence: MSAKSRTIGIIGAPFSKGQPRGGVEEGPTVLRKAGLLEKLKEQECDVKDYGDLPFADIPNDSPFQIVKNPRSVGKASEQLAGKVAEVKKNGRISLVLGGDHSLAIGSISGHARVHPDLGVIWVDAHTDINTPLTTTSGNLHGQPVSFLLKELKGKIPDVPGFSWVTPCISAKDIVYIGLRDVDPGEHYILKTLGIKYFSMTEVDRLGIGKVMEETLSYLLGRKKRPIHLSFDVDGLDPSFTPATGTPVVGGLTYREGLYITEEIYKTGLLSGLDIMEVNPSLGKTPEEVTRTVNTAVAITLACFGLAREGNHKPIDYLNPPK

Amino acid sequences for entries named in this document (tags omitted). A change or cut given only in a name is not applied to a line headed by its entry.
UniProt P08195: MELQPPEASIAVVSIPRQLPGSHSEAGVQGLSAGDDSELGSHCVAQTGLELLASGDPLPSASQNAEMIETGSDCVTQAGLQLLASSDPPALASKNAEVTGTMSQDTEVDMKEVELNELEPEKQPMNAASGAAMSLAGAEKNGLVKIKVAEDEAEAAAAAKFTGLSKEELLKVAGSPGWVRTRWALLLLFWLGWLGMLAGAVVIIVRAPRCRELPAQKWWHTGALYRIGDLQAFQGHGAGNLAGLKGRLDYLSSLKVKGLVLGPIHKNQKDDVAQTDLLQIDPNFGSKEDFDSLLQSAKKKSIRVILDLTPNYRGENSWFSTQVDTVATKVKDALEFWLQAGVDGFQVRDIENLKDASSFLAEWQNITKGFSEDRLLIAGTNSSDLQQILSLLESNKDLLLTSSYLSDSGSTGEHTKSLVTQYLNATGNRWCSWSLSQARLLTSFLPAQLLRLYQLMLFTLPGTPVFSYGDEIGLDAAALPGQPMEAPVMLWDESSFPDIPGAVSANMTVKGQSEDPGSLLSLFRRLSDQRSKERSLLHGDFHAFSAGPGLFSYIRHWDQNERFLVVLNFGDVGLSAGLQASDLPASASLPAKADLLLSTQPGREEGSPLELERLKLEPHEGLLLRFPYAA

[2] = molecular target: T2, Flag-tagged ARG1^1-240aa (human) (UniProt P05089); assay: as above
T2 sequence: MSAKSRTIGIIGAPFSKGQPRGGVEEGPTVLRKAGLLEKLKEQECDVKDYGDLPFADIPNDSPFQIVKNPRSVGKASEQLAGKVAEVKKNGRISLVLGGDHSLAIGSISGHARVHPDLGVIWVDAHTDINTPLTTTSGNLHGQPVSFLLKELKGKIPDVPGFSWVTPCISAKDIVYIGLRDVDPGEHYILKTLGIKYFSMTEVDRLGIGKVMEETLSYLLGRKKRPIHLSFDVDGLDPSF

[3] = molecular target: GST-SLC3A2^1-184aa (human) (UniProt P08195); assay: pull-down; 20 µg purified GST or GST-SLC3A2 protein and lysate of HCT116 cells transfected with ARG1 plasmid, 100 µL GST beads, 2 h at 4 °C; blots with anti-GST and anti-ARG1; only the target purified

binding [1]: binds
Molecule: HA-tagged SLC3A2^1-184aa (from UniProt P08195-1) (domain or fragment)

binding [2]: binds
Molecule: HA-tagged SLC3A2^WT (pCDH-HA) (from UniProt P08195-1)

binding [3]: binds
B1: Flag-ARG1 (full-length human arginase-1, pcDNA3.1-Flag) (protein, UniProt P05089 1-322)
chain: T1 sequence

— paper PMC12520464
